Two sequences from publication PMC3709825 can be followed below.

Common to all, as to assay: EMSA
On the technique in general: A gel shift assay detects complexes by their altered migration in electrophoresis.

One series deals with T1, MarA (UniProt P0A2S4).
T1 sequence (looked up, limits assumed): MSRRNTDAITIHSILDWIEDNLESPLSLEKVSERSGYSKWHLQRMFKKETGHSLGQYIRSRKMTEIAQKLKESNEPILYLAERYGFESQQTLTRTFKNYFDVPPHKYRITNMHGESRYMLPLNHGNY
Conditions: shift at 100 nM MarA; 20 mM HEPES, 100 mM KCl, 2 mM MgCl2, 0.1 mM EDTA, 20% glycerol; pH not stated; 30 min room temperature; […]; recombinant protein; protein details: His-tag; probe letters rebuilt from the primers and the genome.

In a further series the target is T2, SoxS (UniProt Q56143).
T2 sequence (looked up, limits assumed): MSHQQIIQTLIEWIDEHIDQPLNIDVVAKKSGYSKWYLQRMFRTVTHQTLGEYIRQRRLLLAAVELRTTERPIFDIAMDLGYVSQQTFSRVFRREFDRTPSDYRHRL
Conditions: shift required 400 nM SoxS; 20 mM HEPES, 100 mM KCl, 2 mM MgCl2, 0.1 mM EDTA, 20% glycerol; pH not stated; 30 min room temperature; DNA ~2 ng/ml; 6% native PAGE in 0.5x TBE, ethidium bromide; recombinant protein; protein details: His-tag; probe letters rebuilt from the primers and the ….

In another series the test system is MarA + SoxS. Conditions: 20 mM HEPES, 100 mM KCl, 2 mM MgCl2, 0.1 mM EDTA, 20% glycerol, pH not stated, […], recombinant protein, protein details: His-tag,His-tag, probe letters rebuilt from the primers and the genome.

For at least one entry, the source does not settle the construct or the ends of the probe. For some of these results: Protein sequences can lack the tags named with them.

For “CGGGGTACCCCCGATATCGAAAATTCGCGACAGGTTGAAGGGCGGTTTTCATAAATAGCGCAACTGACGTTTTCACCCGGCGTGCCAATTAGCGCTTTACAGTGCGGCTGTTTTTGGTTGGTACCGGCCATACAACGTAAAAAAGGGGTAACAGGCTCGGTTAATGACGCCGGAACGCGTCCGCTGGCATCGTCGCCTTCAGCCCAATAAAAGGAGACACGAAAATAGGCACAACAGGCACCGCATGTCATGCATGGGTTAAGAACGCTCATGATTCACCTGCAAAAAACTAACGTATCAATAGATTACAACGGAAATTAATCTGTCCCGCAGTGTTCGCGAATCTTAACGCCACGCGCCATTGCGGGACATTGATTACCTTAGCCAGCCTTTATCGCCAGGGCAACAGGAGCAGACAAATATTTGCATAGCGTGAATATGTCAAAATTGATCTGAATTCCTATAACCAGGATTTTCAATACAAGTTCTAAATTAATCTGGATCAATAAATGTTAAATTATAAGAACAAATGTGATCTGTATTAGATCACTTATTACTTCATTGTGGGTATATTCATCACGCTTTTATAACCATAACGATGGAGCGGGTAAGCTTGGG (double strand) [ompW promoter fragment A (wild type)]”, the binding result in the series with MarA and with SoxS was “binds” each time.

As for “CGGGGTACCCCCGATATCGAAAATTCGCGACAGGTTGAAGGGCGGTTTTCATAAATAGCGCAACTGACGTTTTCACCCGGCGTGCCAATTAGCGCTTTACAGTGCGGCTGTTTTTGGTTGGTACCGGCCATACAACGTAAAAAAGGGGTAACAGGCTCGGTTAATGACGCCGGAACGCGTCCGCTGGCATCGTCGCCTTCAGCCCAATAAAAGGAGACACGAAAATAGGCACAACAGGCACCGCATGTCATGCATGGGTTAAGAACGCTCATGATTCACCTGCAAAAAACTAACGTATCAATAGATTACAACGGAAATTAATCTGTCCCGCAGTGTTCGCGAATCTTAACGCCACGCGCCATTGCGGGACATTGATTACCTTAGCCAGCCTTTATCGCCAGGGCAACAGGAAAAGACAAATATTTGCATAGCGTGAATATGTCAAAATTGATCTGAATTCCTATAACCAGGATTTTCAATACAAGTTCTAAATTAATCTGGATCAATAAATGTTAAATTATAAGAACAAATGTGATCTGTATTAGATCACTTATTACTTCATTGTGGGTATATTCATCACGCTTTTATAACCATAACGATGGAGCGGGTAAGCTTGGG (double strand) [fragment C (MS-B mutated)]”, the binding result with MarA + SoxS (MarA constant 200 nM, higher-mass complex already at 0.0125 uM SoxS, 30 min room temperature) was “binds”; with MarA + SoxS (SoxS constant 0.8 uM, higher-mass complex at 100 nM MarA, 30 min room …) it was “binds”.
